Some of the results follow. These are further read-outs of the screen, such as a control signal, another cell line or another target. No call is given for them. Compounds called inactive in the main read-out are mostly missing here. The note in brackets gives the kind of curve behind each potency; many fits are weak.
Assay: qHTS Assay to Find Inhibitors of Chronic Active B-Cell Receptor Signaling
Conditions: ABC-DLBCL IkBa-CBG/CBR reporter, luminescence ratio (green luciferase fused to IkBa over red control in TMD8 lymphoma cells), 4 h
Method in brief: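 Cell line TMD8 (human ABC DLBCL), stably expressing tet-inducible CBG68-IkBa fusion and CBR; IMDM/0.5% FBS; cpd up to 46 uM; dox induction, 4 h, 37C/5% CO2; dual luminescence; green/red ratio; MG132 control.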

[1] = measured here: CBR red luminescence, cell number

SMILES | AC50 [1] | AC50 (measured here: IkBa-CBG green luminescence)
O=C(Nc1ccccc1)C1=C[C@@H](c2ccccc2)C[C@@H](OCc2ccc(CO)cc2)O1 | 1.12 µM [falling, full curve] | 
COc1ccc(C(=O)c2c(N)sc3c2CCN(C)C3)cc1 | 2.51 µM [falling, partial curve, poor fit] | 
Cc1cccnc1Nc1nc(-c2ccc(O)c(O)c2)cs1 | 6.51 µM [falling, full curve] | 
Cc1cccc(C)c1OCC(O)CNC(C)c1ccccc1 (centres undefined) | 11.2 µM [falling, partial curve, poor fit] | 
Cc1cc(/C=N/n2cnnc2)c(C)n1-c1ccc(OCc2ccc(Cl)cc2)cc1 | 18.4 µM [falling, partial curve] | 
COc1ccc(C(CC(=O)O)NC(=O)c2cccs2)cc1 (centres undefined) | 0.231 µM [rising, full curve, poor fit] | 
CCOc1ccccc1C(=O)Nc1ccc2c(c1)N(C)C(=O)c1ccccc1S2 | 14.1 µM [falling, partial curve, poor fit] | 
O=C(CSC(=S)N1CCOCC1)Nc1nc(-c2ccccc2)c(-c2ccccc2)o1 | 0.447 µM [falling, full curve, poor fit] | 
O=C(OCc1nc2ccccc2s1)C1CCN(S(=O)(=O)c2cccs2)CC1 | 25.9 µM [rising, single point] | 
O=C(O)c1ccc(COc2ccc([N+](=O)[O-])cc2)o1 | 14.1 µM [falling, single point] | 
COc1ccccc1NC(=O)c1nnn(CC(=O)Nc2ccccc2)c1N | 1.84 µM [falling, full curve, poor fit] | 
CCOC(=O)C1CCCN(C(=O)C2c3ccccc3Oc3ccccc32)C1 (centres undefined) | 29.1 µM [falling, single point] | 
CCOc1ccc(CCNC(=O)Cn2c(-c3nonc3N)nc3ccccc32)cc1OCC | 29.1 µM [falling, single point] | 
CCC[N+]1(CC#CC2(O)CCCCC2)CCOCC1 | 35.5 µM [falling, single point] | 
CC(C)c1ccc(S(=O)(=O)/N=C2/C=C(Sc3ncn[nH]3)C(=O)c3ccccc32)cc1 | 0.82 µM [falling, full curve] | 2.59 µM [rising, full curve]
Cc1ccc(C)c(Nc2c([N+](=O)[O-])ccc3nonc23)c1 | 0.501 µM [rising, full curve, poor fit] | 
Nc1c(C(=O)c2ccc(Br)s2)oc2ccccc12 | 23.1 µM [falling, single point] | 
O=C(c1ccco1)N1CCN(C(=O)C2CCCO2)CC1 (centres undefined) | 0.00411 µM [rising, full curve, poor fit] | 

Entries of single compounds, looked up by structure.
`CCOC(=O)C1CCCN(C(=O)C2c3ccccc3Oc3ccccc32)C1` (centres undefined) is entered as AC50 [1]: 29.1 µM [falling, single point]
`O=C(c1ccco1)N1CCN(C(=O)C2CCCO2)CC1` (centres undefined) is entered as AC50 [1]: 0.00411 µM [rising, full curve, poor fit]

From PubChem BioAssay AID493014 (National Center for Advancing Translational Sciences (NCATS), 2011)
